Data: patent US20090031445A1
These are yes or no findings as the source states them, for the method shown. Binding seen in cells or lysates may run through a third protein. Some results given as binding are weak or reduced against the parent protein; the word gives no strength. Where a sequence is shown, tags or fusion partners need not be part of it.

Tests used:
[1] = molecular target: T1, BAD03576-HA fusion protein (OsYchF1 with in-frame HA tag, in vitro translated) (Oryza sativa (rice)) (UniProt Q6Z1J6); test: co-immunoprecipitation with anti-HA antibody, Western blot with anti-OsGAP1
T1 sequence (chain, biotinylated lysines from Transcend biotin-lysyl-tRNA in vitro translation): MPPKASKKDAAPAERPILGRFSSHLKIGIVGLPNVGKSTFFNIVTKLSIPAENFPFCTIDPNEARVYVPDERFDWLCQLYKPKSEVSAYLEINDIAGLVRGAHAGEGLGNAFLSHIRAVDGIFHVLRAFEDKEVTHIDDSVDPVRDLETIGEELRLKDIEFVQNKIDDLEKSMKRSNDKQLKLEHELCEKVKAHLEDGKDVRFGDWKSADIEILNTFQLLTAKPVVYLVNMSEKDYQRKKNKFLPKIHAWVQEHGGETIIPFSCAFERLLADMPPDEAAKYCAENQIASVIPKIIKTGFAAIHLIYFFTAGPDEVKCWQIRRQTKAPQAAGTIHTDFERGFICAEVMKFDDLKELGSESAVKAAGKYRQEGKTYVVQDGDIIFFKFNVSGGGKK

[2] = molecular target: T1, BAD03576-HA fusion protein (OsYchF1 with in-frame HA tag, in vitro translated) (Oryza sativa (rice)); test: co-immunoprecipitation with anti-HA antibody from rice extract mixed with in vitro translated BAD03576-HA, Western blot with anti-OsGAP1

B1: OsGAP1 (rice GTPase activating protein-1) (protein)
chain: MLGHLVGLVKVRVVRGVNLAVRDLRSSDPYVIVRMGKQKLKTRVIKKTTNPEWNDELTLSIEDPAVPVRLEVYDKDTFIDDAMGNAELDIRPLVEVVKMKIEGVADNTVVKKVVPNRQNCLAEESTIYISEGKVKQDVVLRLRDVECGEIELQLQWVDIPGSKGV
binding [1]: binds | binding [2]: binds
